Laboratory results taken from PubChem BioAssay AID1671190 (National Center for Advancing Translational Sciences (NCATS), 2021).
The campaign covered roughly 580,000 compounds. About 6,100 (1.1%) were called active. This list was built around the results that the source calls inconclusive (neither active nor inactive); the mix of calls is not that of the screen. Calls come from the whole dose curve; as a rule, active = well fitted inhibition curve with a large enough effect; inconclusive = small, poorly fitted or top-dose-only effect, or another doubt; inactive = no such curve, though single readings can be large or run the other way. Where the call is inconclusive, the potency comes from a doubtful curve fit.

Amino acid sequences for entries named in this document (tags omitted). A change or cut given only in a name is not applied to a line headed by its entry.
UniProt P18054: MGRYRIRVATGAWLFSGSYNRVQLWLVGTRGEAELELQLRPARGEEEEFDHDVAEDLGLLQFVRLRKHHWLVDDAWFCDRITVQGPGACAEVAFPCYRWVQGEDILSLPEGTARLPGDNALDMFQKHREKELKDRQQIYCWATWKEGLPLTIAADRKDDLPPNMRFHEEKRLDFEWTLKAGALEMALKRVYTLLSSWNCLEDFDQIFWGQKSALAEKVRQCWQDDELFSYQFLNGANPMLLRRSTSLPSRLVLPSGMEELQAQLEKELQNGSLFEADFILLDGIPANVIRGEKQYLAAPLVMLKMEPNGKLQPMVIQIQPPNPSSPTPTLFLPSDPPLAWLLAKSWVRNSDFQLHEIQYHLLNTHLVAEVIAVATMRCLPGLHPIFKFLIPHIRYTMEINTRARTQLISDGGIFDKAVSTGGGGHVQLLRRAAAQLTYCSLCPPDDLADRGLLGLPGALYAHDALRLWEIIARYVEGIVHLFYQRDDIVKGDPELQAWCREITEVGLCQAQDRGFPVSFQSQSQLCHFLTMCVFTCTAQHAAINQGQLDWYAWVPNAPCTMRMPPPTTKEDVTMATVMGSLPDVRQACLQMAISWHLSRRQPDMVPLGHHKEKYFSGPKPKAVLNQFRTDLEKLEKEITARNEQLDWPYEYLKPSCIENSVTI

The compounds below were run against Polyunsaturated fatty acid lipoxygenase ALOX12 (Homo sapiens) (UniProt P18054) (assay: Primary qHTS assay for inhibitors of human arachidonate 12S-lipoxygenase (ALOX12): Round 2). Details: purified 12hLO, xylenol orange hydroperoxide absorbance; activity change, negative = inhibition: at 108 µM (top of the series) unless noted.
How it was run: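 Purified human 12hLO at 150 nM in 25 mM Hepes, 0.01% Triton X-100, pH 7.0, preincubated 15 min at room temperature with compound. Reaction started with 40 uM arachidonic acid, 30 min at room temperature. Hydroperoxide measured by Fe-xylenol orange, 573/405 nm absorbance ratio.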
% is set by controls: 0 for no effect and ±100 for the full control effect; potency is the fitted concentration of half-maximal effect.

Row | Compound | Potency | activity change, negative = inhibition
1 | COc1ccc(C(=O)NCC2(COc3cccnc3)C[C@@H](O)[C@@H](O)C2)cc1 (stereo partly drawn) | inconclusive: 10 µM [inhibitor, partial curve] | –
2 | O=C(NCCO)c1c(-c2ccc3c(c2)OCO3)noc1-c1ccsc1 | inconclusive: 100 µM [inhibitor, single point] | –
3 | Cc1ccc([C@@H]2C[C@H]3[C@@H](CN2S(=O)(=O)c2ccc(C)cc2)C(=O)C[C@@H](c2ccccc2)N3S(=O)(=O)c2ccc(C)cc2)cc1 | inconclusive: 50.1 µM [inhibitor, partial curve, poor fit] | –
4 | Cn1cc(C#N)cc1C(=O)N1CCC2(CCC(=O)N(CCc3cnc[nH]3)C2)CC1 | inactive | –
5 | N#Cc1ccc(OCC(O)CS(=O)(=O)c2ccccc2)cc1 (stereo not drawn) | inactive | –
6 | CC(CCc1ccc(O)cc1)NC1c2ccccc2-c2ccccc21 (stereo not drawn) | inconclusive: 89.1 µM [inhibitor, single point] | –
7 | O=C(NCc1ccc2c(c1)OCO2)[C@@H]1C[C@@H](c2ccc(F)cc2)N(CCOc2ccccc2)C1 | inconclusive: 39.8 µM [inhibitor, partial curve] | –
8 | O=C(O)c1cccc(NC(=O)C2CC(=O)N(Cc3ccccc3)C2)c1 (stereo not drawn) | inconclusive: 112 µM [inhibitor, single point] | –
9 | Cc1cc2cc(-c3c(C)noc3C)nc(-c3ccccc3)c2o1 | inactive | –
10 | Clc1cccc(-c2nc3ccc(Br)cn3c2Cc2ccccc2)c1 | inconclusive: 56.2 µM [inhibitor, partial curve, poor fit] | –
11 | CC(=O)Nc1cc(-c2ccc(CO)cc2)cn2c(-c3ccc(F)cc3)cnc12 | active: 44.7 µM | –
12 | CCOC(=O)c1c(C)oc2nc(C)nc(NCC3CCN(Cc4ccc(C)cc4)CC3)c12 | inactive | –
13 | CCC(=O)N1N=C(c2c(-c3ccccc3)c3cc(Cl)ccc3n(C)c2=O)CC1c1ccco1 (stereo not drawn) | inconclusive: 56.2 µM [inhibitor, partial curve, poor fit] | –
14 | C/C(=C/C(=O)O)C(=O)Nc1ccc(N2CCOCC2)cc1 | inactive | –
15 | Cc1ccccc1CSc1cn(CC(=O)N2CCCCC2)c2ccccc12 | inactive | –
16 | CC1Cc2nc(SCC(=O)N3CCCC3)n(-c3ccccc3)c(=O)c2S1 (stereo not drawn) | inactive | –
17 | O=C(CCc1nc(-c2ccc(F)cc2)no1)NCc1ccccc1CN1CCOCC1 | inactive | –
18 | O=C(COc1ccc(F)cc1)Nc1nc(-c2ccccn2)cs1 | inactive | –
19 | O=C(NCC1CC1)c1cccc(OC2CN(CC3CC=CCC3)C2)c1 (stereo not drawn) | inconclusive: 3.16 µM [inhibitor, full curve, poor fit] | –
20 | COc1ccc(OCC(=O)N2CCc3ccccc3C2)cc1 | inconclusive: 100 µM [inhibitor, single point] | –
21 | COCCNC(=O)c1cnc2c(c1)N(Cc1ccccc1)CCC2 | inconclusive: 7.94 µM [inhibitor, full curve, poor fit] | –
22 | CCCNCc1ccccc1C(F)(F)F | inactive | –
23 | COc1ccc(C(=O)N2CCN(C3CCN(Cc4ccccc4)CC3)CC2)cc1OC | inconclusive: 0.398 µM [inhibitor, full curve, poor fit] | –

Row | Compound | Potency | activity change, negative = inhibition
24 | COCc1nc(C2CCN(C(=O)c3cccn3C)C2)no1 (stereo not drawn) | inactive | –
25 | COc1ccc(C(=O)CSc2nnc(CCc3ccccc3)n2-c2ccccc2)cc1 | inconclusive: 63.1 µM [inhibitor, partial curve, poor fit] | –
26 | O=C(Cc1ccc(F)cc1)Nc1ccc(S(=O)(=O)N2CCCC2)cc1 | inactive | –
27 | COc1ccc(/C=N/N(c2ccccc2)c2ccccc2)cc1O | inconclusive: 126 µM [inhibitor, single point] | –
28 | CN(C)CCCN1C(=O)c2oc3ccc(Cl)cc3c(=O)c2C1c1cccnc1 (stereo not drawn) | inconclusive: 25.1 µM [inhibitor, single point] | –
29 | CN1CCN(C(=O)C2Cc3c(-c4ccc5c(c4)OCO5)ccnc3O2)CC1 (stereo not drawn) | inconclusive: 35.5 µM [inhibitor, single point] | –
30 | C[C@@H]1CN([C@@H](C)CO)C(=O)CCCn2nncc2CO[C@H]1CN(C)Cc1ccc(C(F)(F)F)cc1 | inconclusive: 89.1 µM [inhibitor, single point] | –
31 | Cc1ccc(-c2cc(C(=O)OCC(N)=O)c3ccccc3n2)cc1 | inconclusive: 141 µM [inhibitor, single point] | –
32 | Cc1ccc2nc(N(CCN(C)C)C(=O)c3ccc4c(c3)OCCO4)sc2c1 | inconclusive: 112 µM [inhibitor, single point] | –
33 | CC1(COCC2CC2)COc2ccc(C(=O)NCc3ccncc3)cc2N1 (stereo not drawn) | inconclusive: 25.1 µM [inhibitor, full curve, poor fit] | –
34 | Cc1cc(=O)[nH]c(SCc2ccc(Cl)cc2Cl)n1 | inconclusive: 44.7 µM [inhibitor, partial curve, poor fit] | –
35 | CN1CCN(c2ccc(NC(=O)CCc3ncc(-c4ccc(Cl)cc4)o3)cc2)CC1 | – | inconclusive: -36.1% [inhibitor]
36 | CCOC(=O)Cn1c(=O)n(CC2CCCO2)c2nc(-c3ccccc3)nc(C(N)=O)c21 (stereo not drawn) | inconclusive: 31.6 µM [inhibitor, single point] | –
37 | COc1cc(CCCN2C(N)=NC[C@H]2Cc2ccc(O)cc2)cc(OC)c1OC | inconclusive: 50.1 µM [inhibitor, partial curve, poor fit] | –
38 | COc1ccc(C(=O)Nc2ccc(N(C)Cc3ccccc3)c(C(=O)O)c2)cc1 | inconclusive: 100 µM [inhibitor, single point] | –
39 | CC(NCc1ccc(C#N)cc1)c1ccc(F)cc1F (stereo not drawn) | inconclusive: 112 µM [inhibitor, single point] | –
40 | Cc1cc(C)c2c(N)c(C(=O)Nc3nccs3)sc2n1 | inactive | –
41 | C=CCOC(=O)C1=C(C)NC(C)=C(C(=O)OCC=C)C1c1ccc(C)o1 | inconclusive: 100 µM [inhibitor, single point] | –
42 | Cc1cc(OCC(=O)NC2CC2)c2c(C)cc(=O)oc2c1 | inconclusive: 0.316 µM [inhibitor, single point] | –
43 | CN(C)S(=O)(=O)c1cc(NC2CC(=O)N(c3ccc(F)cc3)C2=O)ccc1Cl (stereo not drawn) | inactive | –
44 | CC(Sc1nc2ccccc2o1)C(=O)c1c[nH]c2ccccc12 (stereo not drawn) | inconclusive: 39.8 µM [inhibitor, partial curve, poor fit] | –
45 | O=C(Nc1ccc(C(=O)O)c(O)c1)c1ccccc1 | inconclusive: 126 µM [inhibitor, single point] | –
46 | COc1cc(=O)n2c(c1C(=O)Nc1ccc(Br)cc1)CCCC2 | inactive | –

Row | Compound | Potency | activity change, negative = inhibition
47 | COc1ccc(-c2nnc(SCC(=O)NCCC(C)C)nc2-c2ccc(OC)c(OC)c2)cc1OC | inconclusive: 44.7 µM [inhibitor, partial curve, poor fit] | –
48 | COc1ccc(-c2c(Sc3ccccc3)c3cc(-c4ccc(OC)c(F)c4)ccc3n2C)cc1 | inconclusive: 7.94 µM [inhibitor, partial curve, poor fit] | –
49 | CCOc1cccc2sc(NN)nc12 | inconclusive: 15.8 µM [inhibitor, full curve, poor fit] | –
50 | COC(=O)c1nc[nH]c1C(=O)OC | inconclusive: 31.6 µM [inhibitor, partial curve, poor fit] | –
51 | Cc1ccc(C2C(C(=O)c3cccs3)=C(O)C(=O)N2c2nnc(C)s2)cc1 (stereo not drawn) | inconclusive: 56.2 µM [inhibitor, partial curve, poor fit] | –
52 | Cc1ccccc1-n1nc(C)c(CCC(=O)NCC(C)C)c1Oc1cccc(F)c1 | inactive | –
53 | CCCS(=O)(=O)N1CCC(C(=O)NCCCN2CCC(Cc3ccccc3)CC2)CC1 | inactive | –
54 | C[C@@H]1CN([C@@H](C)CO)S(=O)(=O)c2ccc(Br)cc2O[C@@H]1CN(C)C(=O)c1ccccn1 | inconclusive: 3.98 µM [inhibitor, full curve, poor fit] | –
55 | O=C(N[C@@H](Cc1c[nH]c2ccccc12)C(=O)O)c1ccc(Cl)cc1 | inactive | –
56 | CC(OC(=O)CNC(=O)c1ccc2ccccc2c1)C(=O)N(C)C1CCCCC1 (stereo not drawn) | inconclusive: 79.4 µM [inhibitor, single point] | –
57 | CCCCNC(=O)c1ccc2c(=O)n(Cc3ccc(OC)cc3)c(=O)[nH]c2c1 | inconclusive: 3.98 µM [inhibitor, full curve, poor fit] | –
58 | CC(c1nnc(-c2cccc(Cl)c2)o1)N1CCN(c2cnn(-c3ccccc3)c(=O)c2Cl)CC1 (stereo not drawn) | inconclusive: 56.2 µM [inhibitor, partial curve, poor fit] | –
59 | O=C1Nc2ccccc2CC12CCN(Cc1ccc(F)cc1)CC2 | inconclusive: 79.4 µM [inhibitor, partial curve] | –
60 | CCCn1cc(C2CCN(S(=O)(=O)c3c(Cl)cccc3Cl)CC2)c2ccccc21 | inactive | –
61 | COc1cc(C(=O)Nc2nc(-c3ccc(Cl)cc3)c(C)s2)ccc1OCC(=O)Nc1ccc(F)cc1 | inactive | –
62 | CCn1ncc(N2CCC(NC(=O)c3ccc(C)cc3C)CC2)cc1=O | inactive | –
63 | COC(=O)CNC(=O)CSc1ccccn1 | inconclusive: 141 µM [inhibitor, single point] | –
64 | Cc1cc(C(=O)CN2C(=O)C(=O)N(CCC3=CCCCC3)C2=O)c(C)n1C | inconclusive: 141 µM [inhibitor, single point] | –
65 | CN(Cc1ccco1)c1ncncc1-c1ccccc1Cl | inconclusive: 20 µM [inhibitor, partial curve] | –
66 | O=C(CN1CCCc2nc(C3CC3)ncc2C1=O)NCc1cccs1 | inactive | –
67 | CCCOc1ccccc1C(C)Nc1nc(-c2cccnc2)nc2c1CNC2 (stereo not drawn) | inactive | –
68 | Cc1cccc(/C=C/C(=O)O)c1 | inconclusive: 3.16 µM [inhibitor, full curve] | –

Part of the list above in order of molar mass, low to high.
Row | Compound | Potency | activity change, negative = inhibition
68 | Cc1cccc(/C=C/C(=O)O)c1 | inconclusive: 3.16 µM [inhibitor, full curve] | –
50 | COC(=O)c1nc[nH]c1C(=O)OC | inconclusive: 31.6 µM [inhibitor, partial curve, poor fit] | –
49 | CCOc1cccc2sc(NN)nc12 | inconclusive: 15.8 µM [inhibitor, full curve, poor fit] | –
63 | COC(=O)CNC(=O)CSc1ccccn1 | inconclusive: 141 µM [inhibitor, single point] | –
65 | CN(Cc1ccco1)c1ncncc1-c1ccccc1Cl | inconclusive: 20 µM [inhibitor, partial curve] | –
62 | CCn1ncc(N2CCC(NC(=O)c3ccc(C)cc3C)CC2)cc1=O | inactive | –
64 | Cc1cc(C(=O)CN2C(=O)C(=O)N(CCC3=CCCCC3)C2=O)c(C)n1C | inconclusive: 141 µM [inhibitor, single point] | –
67 | CCCOc1ccccc1C(C)Nc1nc(-c2cccnc2)nc2c1CNC2 (stereo not drawn) | inactive | –
57 | CCCCNC(=O)c1ccc2c(=O)n(Cc3ccc(OC)cc3)c(=O)[nH]c2c1 | inconclusive: 3.98 µM [inhibitor, full curve, poor fit] | –
56 | CC(OC(=O)CNC(=O)c1ccc2ccccc2c1)C(=O)N(C)C1CCCCC1 (stereo not drawn) | inconclusive: 79.4 µM [inhibitor, single point] | –
51 | Cc1ccc(C2C(C(=O)c3cccs3)=C(O)C(=O)N2c2nnc(C)s2)cc1 (stereo not drawn) | inconclusive: 56.2 µM [inhibitor, partial curve, poor fit] | –
53 | CCCS(=O)(=O)N1CCC(C(=O)NCCCN2CCC(Cc3ccccc3)CC2)CC1 | inactive | –
60 | CCCn1cc(C2CCN(S(=O)(=O)c3c(Cl)cccc3Cl)CC2)c2ccccc21 | inactive | –
58 | CC(c1nnc(-c2cccc(Cl)c2)o1)N1CCN(c2cnn(-c3ccccc3)c(=O)c2Cl)CC1 (stereo not drawn) | inconclusive: 56.2 µM [inhibitor, partial curve, poor fit] | –
54 | C[C@@H]1CN([C@@H](C)CO)S(=O)(=O)c2ccc(Br)cc2O[C@@H]1CN(C)C(=O)c1ccccn1 | inconclusive: 3.98 µM [inhibitor, full curve, poor fit] | –
47 | COc1ccc(-c2nnc(SCC(=O)NCCC(C)C)nc2-c2ccc(OC)c(OC)c2)cc1OC | inconclusive: 44.7 µM [inhibitor, partial curve, poor fit] | –
61 | COc1cc(C(=O)Nc2nc(-c3ccc(Cl)cc3)c(C)s2)ccc1OCC(=O)Nc1ccc(F)cc1 | inactive | –
